Assay results reported in article doi:10.1101/2023.11.03.565550.

Sequences of proteins named here, by UniProt entry; tags and fusion partners are left off.
UniProt Q96321: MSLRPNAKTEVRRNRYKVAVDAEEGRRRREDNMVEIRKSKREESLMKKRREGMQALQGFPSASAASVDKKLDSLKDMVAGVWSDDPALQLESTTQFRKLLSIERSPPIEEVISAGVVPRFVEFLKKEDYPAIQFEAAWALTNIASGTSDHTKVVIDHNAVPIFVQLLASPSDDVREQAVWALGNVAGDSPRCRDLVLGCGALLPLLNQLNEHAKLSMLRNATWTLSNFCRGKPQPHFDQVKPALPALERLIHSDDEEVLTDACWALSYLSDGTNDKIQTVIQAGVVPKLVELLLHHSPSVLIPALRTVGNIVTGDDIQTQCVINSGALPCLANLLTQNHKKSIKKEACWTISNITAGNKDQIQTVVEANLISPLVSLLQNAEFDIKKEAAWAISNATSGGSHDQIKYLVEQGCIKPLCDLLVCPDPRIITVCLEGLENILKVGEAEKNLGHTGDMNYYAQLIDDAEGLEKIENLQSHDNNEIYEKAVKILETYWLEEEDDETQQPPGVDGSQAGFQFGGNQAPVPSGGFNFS
UniProt F4JL11: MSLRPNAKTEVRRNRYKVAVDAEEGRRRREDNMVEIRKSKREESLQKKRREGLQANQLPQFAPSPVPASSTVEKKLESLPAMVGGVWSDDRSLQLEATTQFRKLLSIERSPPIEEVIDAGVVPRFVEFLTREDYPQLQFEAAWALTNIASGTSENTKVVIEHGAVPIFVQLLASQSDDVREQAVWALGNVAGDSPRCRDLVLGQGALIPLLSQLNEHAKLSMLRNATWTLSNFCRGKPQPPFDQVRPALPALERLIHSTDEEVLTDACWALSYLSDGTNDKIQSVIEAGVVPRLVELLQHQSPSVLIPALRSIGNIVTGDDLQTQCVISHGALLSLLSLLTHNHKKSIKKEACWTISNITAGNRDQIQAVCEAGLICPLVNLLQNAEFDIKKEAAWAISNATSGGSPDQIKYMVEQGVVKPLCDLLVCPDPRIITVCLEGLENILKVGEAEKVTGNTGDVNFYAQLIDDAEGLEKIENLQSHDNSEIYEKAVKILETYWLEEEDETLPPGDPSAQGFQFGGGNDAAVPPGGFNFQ

T1: EYFP-tagged GL2 (EYFP:GL2) expressed in Arabidopsis plants (Arabidopsis) (UniProt P46607)
T1 sequence: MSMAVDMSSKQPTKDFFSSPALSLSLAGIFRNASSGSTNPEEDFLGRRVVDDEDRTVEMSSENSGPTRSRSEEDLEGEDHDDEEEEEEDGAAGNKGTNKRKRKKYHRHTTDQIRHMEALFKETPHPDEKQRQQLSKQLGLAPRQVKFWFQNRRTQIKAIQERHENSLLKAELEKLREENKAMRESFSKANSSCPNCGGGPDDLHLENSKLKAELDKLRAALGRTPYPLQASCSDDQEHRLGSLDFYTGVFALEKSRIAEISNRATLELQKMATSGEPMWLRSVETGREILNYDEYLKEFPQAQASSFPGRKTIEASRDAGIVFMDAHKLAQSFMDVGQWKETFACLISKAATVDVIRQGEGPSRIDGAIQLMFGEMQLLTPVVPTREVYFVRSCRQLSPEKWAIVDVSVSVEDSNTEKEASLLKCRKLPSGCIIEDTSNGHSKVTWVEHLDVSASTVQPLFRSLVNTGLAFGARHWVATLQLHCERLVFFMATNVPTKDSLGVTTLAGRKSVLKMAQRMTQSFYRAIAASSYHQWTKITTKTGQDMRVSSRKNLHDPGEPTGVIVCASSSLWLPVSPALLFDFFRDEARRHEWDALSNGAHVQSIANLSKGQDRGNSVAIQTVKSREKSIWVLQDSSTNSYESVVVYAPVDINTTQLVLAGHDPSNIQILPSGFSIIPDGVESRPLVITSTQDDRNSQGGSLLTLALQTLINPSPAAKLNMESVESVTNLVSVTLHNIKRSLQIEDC


Target: T1, EYFP-tagged GL2 (EYFP:GL2) expressed in Arabidopsis plants (Arabidopsis)
Experiment: affinity purification with mass spectrometry

binding	Molecule
binds	Importin α isoform IMPα-1, endogenous in Arabidopsis plants (from UniProt Q96321 1-532)
binds	Importin α isoform IMPα-2, endogenous in Arabidopsis plants (from UniProt F4JL11 1-535)
binds	Importin α isoform IMPα-6, endogenous in Arabidopsis plants (protein, UniProt Q9FWY7 1-538) MSYKPSAKTEVRRNRYKVSVDADEGRRRREDNMVEIRKNKREENLQKKRREGFNPSMASQPGQDFSSSLPTETRLENIQQMIAGVMSEDRDLQLEATASFRRLLSIERNPPINEVVQSGVVPHIVQFLSRDDFTQLQFEAAWALTNIASGTSENTRVIIDSGAVPLFVKLLSSASEEVREQAVWALGNVAGDSPKCRDHVLSCEAMMSLLAQFHEHSKLSMLRNATWTLSNFCRGKPQPAFEQTKAALPALERLLHSTDEEVLTDASWALSYLSDGTNEKIQTVIDAGVIPRLVQLLAHPSPSVLIPALRTIGNIVTGDDIQTQAVISSQALPGLLNLLKNTYKKSIKKEACWTISNITAGNTSQIQEVFQAGIIRPLINLLEIGEFEIKKEAVWAISNATSGGNHDQIKFLVSQGCIRPLCDLLPCPDPRVVTVTLEGLENILKVGEAEKNLGNTGNDNLYAQMIEDADGLDKIENLQSHDNNEIYEKAVKILESYWAADDEEEDIGGVDAPENVQSSGFQFGNQSGNAPTGGFNFG

These are yes or no findings as the source states them, for the method shown. Binding seen in cells or lysates may run through a third protein. A yes stands for co-enrichment or nearness to the bait. Other partners may have been found. Where a sequence is shown, tags or fusion partners need not be part of it.
